{
  "source": "the supplement of paper PMC5407854",
  "about": "“Inhibitor of ppGalNAc-T3-mediated O-glycosylation blocks cancer cell invasiveness and lowers FGF23 levels” (eLife, 2017)",
  "system": "ppGalNAc-T2 sensor",
  "assay": "T2 sensor activation Q score (MG/GFP ratio z-score vs DMSO controls) (SD units); higher = more sensor activation (inhibition of ppGalNAc-T2 glycosylation)",
  "details": "HEK293 sensor cells; 10 µM; 6 h",
  "protocol": "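Cells were treated with compound at 10 uM for 6 h, then MG/GFP ratio was read by flow cytometry (10,000 cells per well, duplicate wells). Q = (R - R_neg)/SD_neg relative to DMSO vehicle controls; the signal rises when the glycosyltransferase is inhibited.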",
  "note": "Some of the results follow. Most entries show no effect beyond the scatter of the controls.",
  "data": [
    {"smiles": "CN(C)CCN(C)Cc1cccc(F)c1", "values": [
      {"measurement": "T2 sensor activation Q score", "result": 0.615}
    ]},
    {"smiles": "Cc1cccc(C)c1NCc1c(F)cccc1F", "values": [
      {"measurement": "T2 sensor activation Q score", "result": -0.115}
    ]},
    {"smiles": "Cc1ccc(S(=O)(=O)Nc2cccc3cccnc23)cc1", "values": [
      {"measurement": "T2 sensor activation Q score", "result": -1.14}
    ]},
    {"smiles": "CCN1CCN(Cc2coc3ccc(C)cc3c2=O)CC1", "values": [
      {"measurement": "T2 sensor activation Q score", "result": -0.16}
    ]},
    {"smiles": "O=C(Nc1ccc(-c2ccccc2)cc1)c1ccco1", "values": [
      {"measurement": "T2 sensor activation Q score", "result": -1.03}
    ]},
    {"smiles": "O=C(Cn1ccnc1)c1ccc(Cl)cc1Cl", "values": [
      {"measurement": "T2 sensor activation Q score", "result": -0.645}
    ]},
    {"smiles": "CCOc1ccc(NC2=C([N+](=O)[O-])CS(=O)(=O)C2)cc1", "values": [
      {"measurement": "T2 sensor activation Q score", "result": -0.875}
    ]},
    {"smiles": "COc1ccc(NC2=C(N(C)C)C(=O)c3ccccc3C2=O)cc1", "values": [
      {"measurement": "T2 sensor activation Q score", "result": 0.315}
    ]},
    {"smiles": "O=C(N1CCCC1)N1c2ccccc2Sc2ccccc21", "values": [
      {"measurement": "T2 sensor activation Q score", "result": -0.86}
    ]},
    {"smiles": "COc1cc(C(=O)N2CCN(C(=O)c3ccco3)CC2)cc(OC)c1OC", "values": [
      {"measurement": "T2 sensor activation Q score", "result": 0.475}
    ]},
    {"smiles": "Cc1cccc(NC(=O)COc2ccc(Br)cc2)c1C", "values": [
      {"measurement": "T2 sensor activation Q score", "result": -0.21}
    ]},
    {"smiles": "CC1(C)CC(=O)C2=C(C1)Nc1ccccc1NC2c1ccc(Cl)cc1", "note": "(stereo not given)", "values": [
      {"measurement": "T2 sensor activation Q score", "result": -0.8}
    ]},
    {"smiles": "Cc1nc2cc(CC(=O)O)ccc2s1", "values": [
      {"measurement": "T2 sensor activation Q score", "result": 1.79}
    ]},
    {"smiles": "O=C(O)c1ccc(N2CCCCC2)cc1", "values": [
      {"measurement": "T2 sensor activation Q score", "result": 0.23}
    ]},
    {"smiles": "NC(=O)c1ccc(C(N)=O)cc1", "values": [
      {"measurement": "T2 sensor activation Q score", "result": 0.035}
    ]},
    {"smiles": "COc1ccc(-c2cn[nH]c2N)cc1OC", "values": [
      {"measurement": "T2 sensor activation Q score", "result": 0.29}
    ]},
    {"smiles": "O=C(Nc1cccc2cccnc12)NC1CCCCC1", "values": [
      {"measurement": "T2 sensor activation Q score", "result": -0.76}
    ]},
    {"smiles": "O=C(Nc1ccccc1)NC1CCCCC1", "values": [
      {"measurement": "T2 sensor activation Q score", "result": -0.355}
    ]},
    {"smiles": "Cc1cccc(CN(C)C2CCN(C)CC2)c1", "values": [
      {"measurement": "T2 sensor activation Q score", "result": 0.55}
    ]},
    {"smiles": "CC(=O)Nc1nonc1-c1ccccc1", "values": [
      {"measurement": "T2 sensor activation Q score", "result": -1.16}
    ]},
    {"smiles": "COc1ccc(Cl)cc1NC(=O)c1cccc(C)c1", "values": [
      {"measurement": "T2 sensor activation Q score", "result": -0.685}
    ]},
    {"smiles": "CC(=O)Nc1ccc(-c2nc3ccc(C)cc3s2)cc1", "values": [
      {"measurement": "T2 sensor activation Q score", "result": -0.85}
    ]},
    {"smiles": "CC1CCCC(NCCN2CCOCC2)C1", "note": "(stereo not given)", "values": [
      {"measurement": "T2 sensor activation Q score", "result": -0.01}
    ]},
    {"smiles": "O=C(NCCc1ccccc1)c1ccco1", "values": [
      {"measurement": "T2 sensor activation Q score", "result": -1.7}
    ]},
    {"smiles": "NCCCCNc1ccccc1[N+](=O)[O-]", "values": [
      {"measurement": "T2 sensor activation Q score", "result": -0.89}
    ]}
  ]
}
